Measurements taken from the supplement of paper PMC10849652.
The list shows a part of the results.

Chains of the proteins cited; added tags and fusions are not shown. Lines headed by an entry give the natural chain unless they say otherwise; changes in a name come on top.
UniProt Q9BV81: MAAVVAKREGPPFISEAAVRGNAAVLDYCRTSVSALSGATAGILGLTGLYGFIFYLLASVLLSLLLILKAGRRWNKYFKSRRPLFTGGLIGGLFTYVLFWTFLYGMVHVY
UniProt P49770: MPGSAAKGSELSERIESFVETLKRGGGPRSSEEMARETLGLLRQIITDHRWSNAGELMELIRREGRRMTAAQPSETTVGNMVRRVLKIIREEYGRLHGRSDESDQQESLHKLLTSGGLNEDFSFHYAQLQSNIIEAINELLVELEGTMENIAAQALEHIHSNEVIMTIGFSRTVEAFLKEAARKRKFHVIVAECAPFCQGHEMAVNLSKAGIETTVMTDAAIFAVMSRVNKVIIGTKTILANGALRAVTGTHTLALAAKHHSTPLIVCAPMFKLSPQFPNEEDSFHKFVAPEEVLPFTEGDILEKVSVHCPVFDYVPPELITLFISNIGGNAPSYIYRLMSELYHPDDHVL
UniProt Q9Y262, whole entry, looked up: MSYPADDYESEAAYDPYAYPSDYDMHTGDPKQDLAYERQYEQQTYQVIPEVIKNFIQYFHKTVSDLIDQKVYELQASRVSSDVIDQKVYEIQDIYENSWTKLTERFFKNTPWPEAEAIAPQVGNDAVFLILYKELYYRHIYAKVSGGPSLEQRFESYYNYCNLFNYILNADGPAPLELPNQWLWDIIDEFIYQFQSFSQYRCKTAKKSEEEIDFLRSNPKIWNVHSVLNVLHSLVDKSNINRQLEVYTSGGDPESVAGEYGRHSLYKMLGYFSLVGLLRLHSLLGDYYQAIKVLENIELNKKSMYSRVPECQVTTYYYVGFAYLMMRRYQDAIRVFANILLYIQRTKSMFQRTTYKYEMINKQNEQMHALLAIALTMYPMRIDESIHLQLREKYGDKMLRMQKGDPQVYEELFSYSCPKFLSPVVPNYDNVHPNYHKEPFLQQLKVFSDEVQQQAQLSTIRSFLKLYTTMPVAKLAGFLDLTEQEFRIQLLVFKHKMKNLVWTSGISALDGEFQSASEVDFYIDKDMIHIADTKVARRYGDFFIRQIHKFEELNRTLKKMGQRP
UniProt P50402: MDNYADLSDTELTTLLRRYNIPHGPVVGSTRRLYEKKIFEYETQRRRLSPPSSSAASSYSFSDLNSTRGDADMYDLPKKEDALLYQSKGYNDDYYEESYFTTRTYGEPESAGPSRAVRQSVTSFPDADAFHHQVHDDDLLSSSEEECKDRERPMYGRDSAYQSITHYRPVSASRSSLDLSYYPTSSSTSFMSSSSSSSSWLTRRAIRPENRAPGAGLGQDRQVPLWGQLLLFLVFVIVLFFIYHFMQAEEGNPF
UniProt Q9NPA8: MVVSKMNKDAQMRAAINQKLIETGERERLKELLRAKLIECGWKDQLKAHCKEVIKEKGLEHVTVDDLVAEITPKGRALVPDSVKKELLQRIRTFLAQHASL
UniProt O95834: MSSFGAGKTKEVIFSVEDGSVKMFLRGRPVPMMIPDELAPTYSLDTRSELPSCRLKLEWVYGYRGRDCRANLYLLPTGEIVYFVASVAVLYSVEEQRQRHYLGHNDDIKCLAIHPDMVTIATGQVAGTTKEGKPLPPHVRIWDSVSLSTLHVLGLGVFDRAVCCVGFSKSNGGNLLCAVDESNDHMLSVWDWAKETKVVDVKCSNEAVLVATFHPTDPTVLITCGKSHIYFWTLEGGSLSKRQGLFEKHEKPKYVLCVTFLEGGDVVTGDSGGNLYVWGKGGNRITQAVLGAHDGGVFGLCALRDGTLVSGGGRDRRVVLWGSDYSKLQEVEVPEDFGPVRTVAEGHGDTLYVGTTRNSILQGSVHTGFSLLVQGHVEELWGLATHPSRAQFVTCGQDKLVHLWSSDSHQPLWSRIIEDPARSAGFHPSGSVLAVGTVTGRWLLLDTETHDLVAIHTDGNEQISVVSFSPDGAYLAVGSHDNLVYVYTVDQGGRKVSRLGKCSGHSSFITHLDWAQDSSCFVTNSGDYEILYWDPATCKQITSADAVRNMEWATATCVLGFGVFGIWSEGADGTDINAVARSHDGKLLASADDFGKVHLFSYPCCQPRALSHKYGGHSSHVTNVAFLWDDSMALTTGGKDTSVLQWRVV
UniProt Q96EB1: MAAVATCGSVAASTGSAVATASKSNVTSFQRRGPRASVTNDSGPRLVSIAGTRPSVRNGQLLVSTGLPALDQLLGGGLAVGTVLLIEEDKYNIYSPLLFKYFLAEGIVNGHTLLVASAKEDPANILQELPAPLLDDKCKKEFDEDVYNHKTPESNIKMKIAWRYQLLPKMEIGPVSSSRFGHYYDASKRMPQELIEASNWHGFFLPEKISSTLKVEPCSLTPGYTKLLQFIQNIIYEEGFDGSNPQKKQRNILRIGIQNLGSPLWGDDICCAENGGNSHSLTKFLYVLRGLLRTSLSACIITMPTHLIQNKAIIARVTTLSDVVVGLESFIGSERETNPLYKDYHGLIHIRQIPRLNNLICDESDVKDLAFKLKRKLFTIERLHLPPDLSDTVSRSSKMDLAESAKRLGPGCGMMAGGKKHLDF
UniProt Q9NR50: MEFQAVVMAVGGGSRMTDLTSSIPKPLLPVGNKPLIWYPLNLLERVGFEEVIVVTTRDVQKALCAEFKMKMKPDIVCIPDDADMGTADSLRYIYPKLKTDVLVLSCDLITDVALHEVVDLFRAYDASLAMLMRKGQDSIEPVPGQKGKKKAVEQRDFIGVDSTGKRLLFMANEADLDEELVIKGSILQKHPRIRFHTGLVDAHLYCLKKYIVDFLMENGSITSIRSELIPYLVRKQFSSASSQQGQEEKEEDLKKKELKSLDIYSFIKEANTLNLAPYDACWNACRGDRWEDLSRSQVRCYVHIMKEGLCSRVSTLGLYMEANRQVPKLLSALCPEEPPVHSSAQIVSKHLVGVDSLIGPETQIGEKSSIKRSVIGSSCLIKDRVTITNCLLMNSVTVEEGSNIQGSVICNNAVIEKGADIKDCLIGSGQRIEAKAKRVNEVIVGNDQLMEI
UniProt P55884, whole entry, looked up: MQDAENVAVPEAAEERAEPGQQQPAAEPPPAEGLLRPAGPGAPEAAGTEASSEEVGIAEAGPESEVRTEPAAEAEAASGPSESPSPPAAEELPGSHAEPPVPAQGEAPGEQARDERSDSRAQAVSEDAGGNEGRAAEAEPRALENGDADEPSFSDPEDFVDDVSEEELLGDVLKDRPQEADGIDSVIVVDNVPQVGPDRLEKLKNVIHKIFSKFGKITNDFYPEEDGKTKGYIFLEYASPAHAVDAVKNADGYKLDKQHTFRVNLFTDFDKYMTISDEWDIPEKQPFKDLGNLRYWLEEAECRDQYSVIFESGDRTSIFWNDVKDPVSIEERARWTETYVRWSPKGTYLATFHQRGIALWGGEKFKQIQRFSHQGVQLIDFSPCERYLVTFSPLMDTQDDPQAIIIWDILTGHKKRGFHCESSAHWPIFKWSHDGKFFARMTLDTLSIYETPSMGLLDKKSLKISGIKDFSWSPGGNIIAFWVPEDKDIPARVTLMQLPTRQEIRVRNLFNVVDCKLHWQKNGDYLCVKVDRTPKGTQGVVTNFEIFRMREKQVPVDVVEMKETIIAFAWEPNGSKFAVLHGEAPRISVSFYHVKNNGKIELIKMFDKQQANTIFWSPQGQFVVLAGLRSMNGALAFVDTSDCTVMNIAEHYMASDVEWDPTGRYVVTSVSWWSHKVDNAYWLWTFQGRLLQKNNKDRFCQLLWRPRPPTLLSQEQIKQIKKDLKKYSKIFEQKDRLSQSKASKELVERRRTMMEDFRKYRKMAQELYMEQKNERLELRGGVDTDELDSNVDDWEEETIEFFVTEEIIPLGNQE
UniProt Q9HC35: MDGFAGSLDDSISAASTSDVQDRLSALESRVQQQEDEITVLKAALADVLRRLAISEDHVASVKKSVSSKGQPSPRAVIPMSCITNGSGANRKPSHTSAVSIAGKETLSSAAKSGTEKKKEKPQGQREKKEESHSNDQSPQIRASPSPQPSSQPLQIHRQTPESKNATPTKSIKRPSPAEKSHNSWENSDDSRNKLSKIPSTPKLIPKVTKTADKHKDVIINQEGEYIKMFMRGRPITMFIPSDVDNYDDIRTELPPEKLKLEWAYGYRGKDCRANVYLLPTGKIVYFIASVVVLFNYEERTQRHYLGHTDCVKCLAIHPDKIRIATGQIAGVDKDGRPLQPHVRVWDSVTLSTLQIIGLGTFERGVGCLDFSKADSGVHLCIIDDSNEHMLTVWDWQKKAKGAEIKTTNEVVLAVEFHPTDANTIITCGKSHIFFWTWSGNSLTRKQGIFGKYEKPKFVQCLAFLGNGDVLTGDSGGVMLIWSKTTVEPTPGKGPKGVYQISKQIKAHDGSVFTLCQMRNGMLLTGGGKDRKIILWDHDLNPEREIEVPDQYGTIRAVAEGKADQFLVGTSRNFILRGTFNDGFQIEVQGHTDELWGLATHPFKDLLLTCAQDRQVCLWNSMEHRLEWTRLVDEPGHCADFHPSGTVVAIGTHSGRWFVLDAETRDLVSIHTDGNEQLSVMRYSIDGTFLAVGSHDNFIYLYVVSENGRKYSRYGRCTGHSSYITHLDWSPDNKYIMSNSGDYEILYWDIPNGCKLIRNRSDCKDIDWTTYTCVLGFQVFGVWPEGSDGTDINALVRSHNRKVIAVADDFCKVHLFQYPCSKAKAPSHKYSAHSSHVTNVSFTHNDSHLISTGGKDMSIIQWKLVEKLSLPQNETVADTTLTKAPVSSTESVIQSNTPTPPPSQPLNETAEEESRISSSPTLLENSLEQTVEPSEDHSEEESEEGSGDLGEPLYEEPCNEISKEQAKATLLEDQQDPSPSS
UniProt O75356: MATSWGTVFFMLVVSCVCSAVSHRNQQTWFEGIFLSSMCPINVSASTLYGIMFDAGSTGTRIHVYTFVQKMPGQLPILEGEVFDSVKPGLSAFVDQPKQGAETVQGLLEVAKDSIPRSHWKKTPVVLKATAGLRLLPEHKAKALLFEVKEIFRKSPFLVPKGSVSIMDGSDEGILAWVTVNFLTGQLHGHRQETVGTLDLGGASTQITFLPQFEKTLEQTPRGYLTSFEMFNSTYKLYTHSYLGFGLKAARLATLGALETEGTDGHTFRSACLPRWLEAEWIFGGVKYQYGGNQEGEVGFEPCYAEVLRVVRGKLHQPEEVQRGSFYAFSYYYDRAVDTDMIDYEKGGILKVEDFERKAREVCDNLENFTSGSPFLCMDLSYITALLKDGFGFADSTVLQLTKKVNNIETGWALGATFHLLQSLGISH
UniProt P41567, whole entry, looked up: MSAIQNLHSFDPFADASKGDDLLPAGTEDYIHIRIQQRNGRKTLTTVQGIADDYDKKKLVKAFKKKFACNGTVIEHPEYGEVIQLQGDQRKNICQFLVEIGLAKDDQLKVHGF
UniProt Q96C19: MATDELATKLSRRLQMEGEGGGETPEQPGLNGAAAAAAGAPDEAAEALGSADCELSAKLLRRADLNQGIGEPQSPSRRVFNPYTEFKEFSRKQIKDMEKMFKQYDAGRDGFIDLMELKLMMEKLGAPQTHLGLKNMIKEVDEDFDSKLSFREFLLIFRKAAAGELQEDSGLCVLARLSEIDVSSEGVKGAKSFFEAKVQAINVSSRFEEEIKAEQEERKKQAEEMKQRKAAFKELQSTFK
UniProt Q13347, whole entry, looked up: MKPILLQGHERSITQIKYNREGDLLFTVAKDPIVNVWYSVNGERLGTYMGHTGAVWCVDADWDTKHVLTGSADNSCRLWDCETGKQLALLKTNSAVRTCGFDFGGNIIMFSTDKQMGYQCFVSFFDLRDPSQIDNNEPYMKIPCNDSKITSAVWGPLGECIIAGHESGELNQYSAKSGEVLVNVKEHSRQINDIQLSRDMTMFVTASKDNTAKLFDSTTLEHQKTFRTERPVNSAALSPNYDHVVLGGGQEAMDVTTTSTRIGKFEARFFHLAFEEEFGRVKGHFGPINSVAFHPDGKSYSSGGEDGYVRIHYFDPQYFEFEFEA
UniProt P60842, whole entry, looked up: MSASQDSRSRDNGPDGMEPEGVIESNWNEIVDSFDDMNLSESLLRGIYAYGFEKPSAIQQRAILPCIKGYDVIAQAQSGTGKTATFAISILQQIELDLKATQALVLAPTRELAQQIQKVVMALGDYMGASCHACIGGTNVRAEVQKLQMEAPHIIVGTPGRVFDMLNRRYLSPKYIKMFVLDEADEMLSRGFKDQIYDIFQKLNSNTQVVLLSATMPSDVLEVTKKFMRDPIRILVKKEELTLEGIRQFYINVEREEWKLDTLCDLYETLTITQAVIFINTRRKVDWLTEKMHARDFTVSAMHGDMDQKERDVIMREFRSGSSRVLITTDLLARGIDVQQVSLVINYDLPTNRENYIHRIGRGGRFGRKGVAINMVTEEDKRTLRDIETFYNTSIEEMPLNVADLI
UniProt O43324: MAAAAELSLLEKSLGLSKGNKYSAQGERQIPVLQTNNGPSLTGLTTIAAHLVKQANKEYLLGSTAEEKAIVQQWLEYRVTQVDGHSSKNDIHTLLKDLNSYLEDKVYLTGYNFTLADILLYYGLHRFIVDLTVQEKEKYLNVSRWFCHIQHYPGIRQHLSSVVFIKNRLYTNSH
UniProt P63241: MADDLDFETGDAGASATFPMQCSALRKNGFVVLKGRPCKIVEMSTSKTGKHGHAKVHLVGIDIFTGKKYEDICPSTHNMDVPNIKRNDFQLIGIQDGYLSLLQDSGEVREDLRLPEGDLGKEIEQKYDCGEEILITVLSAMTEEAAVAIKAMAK

Legend:
Assay in all cases: log2 fold change, soluble protein after heating vs DMSO (PISA); higher = thermal stabilisation; K562 cells, 10 uM, 30 min; active = over 0.2 and 3.5 SD of the protein, either way, in both replicates (recomputed)
[1] = compound: C1=CC=C(C=C1)[C@H](COC2=CC3=C(C=C2)NC(=O)N3)NC(=O)C4=CC=CN(C4=O)CC5=CC(=C(C=C5)F)F
Procedure, shortened: (§1)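 K562 cells at 2×10^6 cells/mL were exposed to 10 μM compound for 30 min, then aliquots were heated for 3 min across 48°C-58°C, pooled, and extracted in PBS containing 0.5% NP-40 at 4°C. The supernatant after 21,000xg for 90 min was taken as soluble protein and measured by TMTpro 16plex LC-MS/MS with channel sums equalised. Thermal stability is reported relative to control samples, with values from duplicates. Fold changes are given on a log2 scale.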

[2] = compound: CC1=C(SC2=C1C(=N[C@H](C3=NN=C(N32)C)CC(=O)N)C4=CC=C(C=C4)Cl)C
Procedure, shortened: as §1

[3] = compound: CC1=C2C(=CC=C1)N=C(N(C2=O)C3=CC=CC=C3C)CN4C=NC5=C(N=CN=C54)N
Procedure, shortened: as §1

[4] = compound: Cc1sc2c(c1C)C(c1ccc(Cl)cc1)=N[C@@H](CC(=O)OC(C)(C)C)c1nnc(C)n1-2
Procedure, shortened: as §1

[5] = compound: c1ccc([C@@H]2C[C@H]2NC2CCNCC2)cc1
Procedure, shortened: as §1

Measured: log2 fold change

EMC6 (UniProt Q9BV81)
inactive: [1] -0.002 | [2] 0.061 | [3] 0.073 | [4] -0.216 | [5] -0.012

EIF2B2 (UniProt P49770)
inactive: [1] 0.015 | [2] -0.001 | [3] -0.038 | [4] 0.006 | [5] -0.025

EIF3L (UniProt Q9Y262)
inactive: [1] -0.013 | [2] 0.049 | [3] -0.001 | [4] -0.003 | [5] -0.032

EMD (UniProt P50402)
inactive: [1] 0.016 | [2] 0.022 | [3] 0.059 | [4] 0.058 | [5] 0.031

ENY2 (UniProt Q9NPA8)
inactive: [1] 0.039 | [2] 0.055 | [3] 0.054 | [4] -0.03 | [5] -0.01

EMC1 (UniProt Q8N766)
inactive: [1] 0.015 | [2] 0.01 | [3] -0.033 | [4] -0.034 | [5] -0.003

EFL1 (UniProt Q7Z2Z2)
inactive: [1] -0.042 | [2] 0.051 | [3] 0.083 | [4] 0.008 | [5] -0.017

EML2 isoform 3 (UniProt O95834)
inactive: [1] -0.061 | [2] 0.03 | [3] 0.081 | [4] -0.012 | [5] -0.048

EIF2A (UniProt Q9BY44)
inactive: [1] 0.019 | [2] -0.062 | [3] -0.045 | [4] 0.03 | [5] -0.008

EHBP1L1 (UniProt Q8N3D4)
inactive: [1] -0.016 | [2] 0.065 | [3] 0.052 | [4] -0.022 | [5] -0.051

ELP4 isoform 3 (UniProt Q96EB1)
inactive: [1] 0.02 | [2] 0.002 | [3] 0.013 | [4] 0.004 | [5] 0.022

EIF2B3 (UniProt Q9NR50)
inactive: [1] 0.015 | [2] 0.003 | [3] -0.039 | [4] 0.041 | [5] -0.021

EIF2S2 (UniProt P20042)
inactive: [1] 0.018 | [2] -0.101 | [3] -0.119 | [4] 0.067 | [5] 0.043

ELAC2 (UniProt Q9BQ52)
inactive: [1] -0.003 | [2] 0.025 | [3] 0.01 | [4] -0.025 | [5] 0.019

EIF3B isoform 2 (UniProt P55884)
inactive: [1] -0.049 | [2] -0.042 | [3] 0.013 | [4] 0.083 | [5] -0.022

ELOC (UniProt Q15369)
inactive: [1] 0.024 | [2] 0.151 | [3] 0.132 | [4] -0.066 | [5] -0.07

ELP4 (UniProt Q96EB1)
inactive: [1] 0.034 | [2] 0.128 | [3] -0.004 | [4] -0.018 | [5] 0.049

EIF3C (UniProt Q99613)
inactive: [1] -0.075 | [2] -0.032 | [3] 0.01 | [4] 0.101 | [5] -0.01

EML4 (UniProt Q9HC35)
inactive: [1] -0.097 | [2] -0.015 | [3] -0.012 | [4] 0.064 | [5] -0.078

EIF6 (UniProt P56537)
inactive: [1] 0.011 | [2] -0.022 | [3] -0.049 | [4] 0.014 | [5] 0.023

EIF4E isoform 2 (UniProt P06730)
inactive: [1] 0.029 | [2] -0.026 | [3] -0.002 | [4] -0.144 | [5] 0.009

EML5 isoform 5 (UniProt Q05BV3)
inactive: [1] 0.014 | [2] -0.052 | [3] 0.049 | [4] 0.051 | [5] -0.033

ELOVL5 isoform 2 (UniProt Q9NYP7)
inactive: [1] -0.056 | [2] 0.021 | [3] 0.016 | [4] -0.074 | [5] 0.033

EHMT2 (UniProt Q96KQ7)
inactive: [1] 0.037 | [2] 0.012 | [3] 0.025 | [4] 0.098 | [5] -0.023

ENTPD5 (UniProt O75356)
inactive: [1] 0.077 | [2] 0.04 | [3] 0 | [4] 0.017 | [5] 0.058

EIF1 (UniProt P41567)
inactive: [1] 0.03 | [2] 0.031 | [3] 0.001 | [4] 0.037 | [5] 0.016

EFHD2 (UniProt Q96C19)
inactive: [1] -0.006 | [2] 0.041 | [3] 0.051 | [4] -0.054 | [5] -0.039

3 consecutive records out of the list so far, quoted:
EHMT2 (UniProt Q96KQ7)
inactive: [1] 0.037 | [2] 0.012 | [3] 0.025 | [4] 0.098 | [5] -0.023

ENTPD5 (UniProt O75356)
inactive: [1] 0.077 | [2] 0.04 | [3] 0 | [4] 0.017 | [5] 0.058

EIF1 (UniProt P41567)
inactive: [1] 0.03 | [2] 0.031 | [3] 0.001 | [4] 0.037 | [5] 0.016

The list goes on:

EIF3I (UniProt Q13347)
inactive: [1] -0.039 | [2] 0.019 | [3] 0.021 | [4] 0.049 | [5] -0.021

EIF4G1 isoform 8 (UniProt Q04637)
inactive: [1] -0.074 | [2] -0.016 | [3] -0.036 | [4] 0.135 | [5] -0.002

EIF2AK4 (UniProt Q9P2K8)
inactive: [1] -0.037 | [2] 0.064 | [3] 0.02 | [4] 0.056 | [5] 0.046

EIF4A2 isoform 2 (UniProt Q14240)
inactive: [1] -0.064 | [2] 0.034 | [3] 0.041 | [4] 0.011 | [5] -0.021

EIF2B4 (UniProt Q9UI10)
inactive: [1] 0.069 | [2] 0.046 | [3] 0.039 | [4] 0.009 | [5] -0.013

EIF4G2 (UniProt P78344)
inactive: [1] -0.096 | [2] -0.127 | [3] -0.036 | [4] 0.181 | [5] -0.025

ELAVL1 isoform 2 (UniProt Q15717)
inactive: [1] 0.002 | [2] -0.064 | [3] -0.105 | [4] 0.168 | [5] 0.048

EMG1 (UniProt Q92979)
inactive: [1] 0.023 | [2] -0.066 | [3] -0.08 | [4] 0.063 | [5] 0.024

EIF4A1 (UniProt P60842)
inactive: [1] -0.043 | [2] 0.096 | [3] 0.05 | [4] -0.005 | [5] -0.042

EIF2D (UniProt P41214)
inactive: [1] -0.127 | [2] 0.012 | [3] 0.131 | [4] 0.08 | [5] -0.049

EIF2B5 (UniProt Q13144)
inactive: [1] 0.008 | [2] -0.034 | [3] 0.012 | [4] 0.098 | [5] 0.001

ENDOD1 (UniProt O94919)
inactive: [1] 0.017 | [2] 0.014 | [3] 0.031 | [4] 0.023 | [5] 0.059

EIF5B (UniProt O60841)
inactive: [1] -0.002 | [2] -0.004 | [3] -0.005 | [4] 0.045 | [5] -0.046

ELP5 isoform 4 (UniProt Q8TE02)
inactive: [1] 0.041 | [2] -0.028 | [3] 0.043 | [4] -0.012 | [5] 0.025

EEF1E1 (UniProt O43324)
inactive: [1] -0.003 | [2] 0.015 | [3] 0.026 | [4] 0.018 | [5] -0.108

EEF1A1P5 (UniProt Q5VTE0)
inactive: [1] -0.027 | [2] 0.035 | [3] 0.01 | [4] 0.103 | [5] 0.002

EMC2 (UniProt Q15006)
inactive: [1] -0.003 | [2] 0.033 | [3] 0.015 | [4] -0.077 | [5] 0.004

EIF2AK2 (UniProt P19525)
inactive: [1] 0.288 | [2] -0.392 | [3] -0.05 | [4] 0.278 | [5] -0.01

EIF3G (UniProt K7ER90)
inactive: [1] 0.034 | [2] 0.026 | [3] 0.137 | [4] -0.117 | [5] 0.097

ELOVL1 (UniProt Q9BW60)
inactive: [1] -0.16 | [2] 0.145 | [3] 0.045 | [4] -0.134 | [5] -0.05

ENDOG (UniProt Q14249)
inactive: [1] -0.019 | [2] 0.055 | [3] 0.144 | [4] -0.037 | [5] -0.012

EIF5A isoform 2 (UniProt P63241)
inactive: [1] -0.016 | [2] 0.039 | [3] 0.046 | [4] -0.069 | [5] -0.017

EFNB1 (UniProt P98172)
inactive: [1] -0.019 | [2] 0.027 | [3] 0.04 | [4] 0.003 | [5] 0.08

EEF1AKNMT (UniProt Q8N6R0)
inactive: [1] -0.146 | [2] 0.049 | [3] 0.121 | [4] 0.028 | [5] -0.063

EGR1 (UniProt P18146)
inactive: [1] 0.034 | [2] 0.241 | [3] -0.097 | [4] 0.705 | [5] 0.07
